Patent publication EP0524173B1, “SOLUBILIZATION AND PURIFICATION OF THE GASTRIN RELEASING PEPTIDE RECEPTOR” (BERLEX LABORATORIES, INC., priority 1989, dated 1991)
At least one peptide structure holds a part that was inferred or is arguable (an end, a ring closure or a residue). Where a SMILES comes first, the peptide text is derived from it. [ ]: non-standard residue; d: D form. pGlu = O=C1CC[C@@H](C(=O)O)N1

Amino acid sequences for entries named in this document (tags omitted). A change or cut given only in a name is not applied to a line headed by its entry.
UniProt P21729: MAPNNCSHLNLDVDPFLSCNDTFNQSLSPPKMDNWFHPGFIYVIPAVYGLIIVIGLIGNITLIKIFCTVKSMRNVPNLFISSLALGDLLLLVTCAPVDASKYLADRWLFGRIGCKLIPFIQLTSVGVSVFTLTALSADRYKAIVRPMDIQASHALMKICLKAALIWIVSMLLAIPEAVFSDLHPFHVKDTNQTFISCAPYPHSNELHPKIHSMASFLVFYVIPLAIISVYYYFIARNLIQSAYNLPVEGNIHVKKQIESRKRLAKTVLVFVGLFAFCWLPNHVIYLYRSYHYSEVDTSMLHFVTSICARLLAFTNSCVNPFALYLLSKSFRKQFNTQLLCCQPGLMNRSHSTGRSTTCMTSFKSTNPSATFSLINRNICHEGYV

Biological target: T1, GRP receptor (Mus musculus, UniProt P21729)
T1 construct: endogenous in cells; host or cells: mouse Swiss 3T3 fibroblasts (membranes; intact or solubilized with CHAPS/CHS)
Assay: ^125I-GRP ligand binding assay, detergent solubilized Swiss 3T3 fibroblast membranes
Settings: concentrations tested up to 1000 nM
Description: Swiss 3T3 fibroblast membranes, prepared in Example 1, were suspended at 15 mg protein/ml in 50 mM HEPES, pH 7.5, 1.0 mM EGTA, 100 mM NaCl, 0.25 M sucrose, 50 µg/ml leupeptin, 5 µg/ml pepstatin, 10 µg/ml aprotinin, 30 µg/ml bacitracin, and 0.5 mM phenylmethylsulfonyl fluoride. A mixture of 3-[(3cholamidopropyl) dimethylammonio]-1- propane sulfonate (CHAPS) and cholesteryl hemisuccinate (CHS) in a ratio of 10:1 was added slowly to yield a final concentration of 0.75% CHAPS. The extract was incubated at 21°C for 30 minutes, cooled to 4°C and the insoluble material was removed by centrifugation at 100,000 x gravity for 60 minutes.
For assays of detergent solubilized membrane extracts, the final CHAPS detergent concentration was adjusted to between 0.050% and 0.20%. The concentration of CHS was maintained at 1/5 to 1/10 the concentration of CHAPS. Samples were also prepared omitting the BSA. After incubation at 15°C for 30 minutes, samples were cooled to 0°C. […] The filters were counted in an Isodata 500 gamma counter.
Scatchard analysis of ^125I-GRP binding to intact and solubilized Swiss 3T3 membranes was done. One particular experiment is discussed below, where the binding parameters of the solubilized and the membrane bound form of the receptor are determined under similar conditions.

SMILES	inhibitory effect on ^125I-GRP binding
CSCC[C@H](NC(=O)[C@H](CC(C)C)NC(=O)CNC(=O)[C@H](Cc1ccccc1)NC(=O)[C@H](Cc1ccccc1)NC(=O)[C@H](CCC(N)=O)NC(=O)[C@H](CCC(N)=O)NC(=O)[C@@H]1CCCN1C(=O)[C@H](CCCCN)NC(=O)[C@@H]1CCCN1C(=O)[C@@H](N)CCCNC(=N)N)C(N)=O [substance P]	no inhibitory effect
CSCC[C@H](NC(=O)[C@H](CC(C)C)NC(=O)CNC(=O)[C@H](Cc1ccc(O)cc1)NC(=O)[C@H](Cc1ccccc1)NC(=O)[C@H](CCCCN)NC(=O)[C@H](CC(N)=O)NC(=O)[C@@H]1CCCN1C(=O)[C@H](CC(=O)O)NC(=O)[C@H](C)NC(=O)[C@@H]1CCC(=O)N1)C(N)=O [physalemin] ([pGlu]ADPNKFYGLM-NH2)	no inhibitory effect
